These are yes or no findings as the source states them, for the method shown. Some binding calls cover weakened binding; strength is not graded here. Blank lines part the entries; values can stand above or below the binder they belong to.
Key:
[1] = biological target: T1, mouse AdipoR2 (mouse adiponectin receptor 2) (mouse) (UniProt Q8BQS5); assay: [125I] ligand binding to transfected 293T cells
T1 sequence: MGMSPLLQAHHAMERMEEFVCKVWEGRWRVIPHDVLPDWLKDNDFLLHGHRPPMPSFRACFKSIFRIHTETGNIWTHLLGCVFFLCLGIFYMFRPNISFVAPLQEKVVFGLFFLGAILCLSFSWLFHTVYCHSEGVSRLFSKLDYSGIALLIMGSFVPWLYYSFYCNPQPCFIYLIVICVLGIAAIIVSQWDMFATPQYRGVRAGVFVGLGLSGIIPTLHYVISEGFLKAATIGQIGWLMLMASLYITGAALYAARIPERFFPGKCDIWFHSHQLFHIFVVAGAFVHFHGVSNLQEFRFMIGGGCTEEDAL

[2] = biological target: T1, mouse AdipoR2 (mouse adiponectin receptor 2) (mouse); assay: [125I] ligand binding to transfected C2C12 myocytes
[3] = biological target: T1, mouse AdipoR2 (mouse adiponectin receptor 2) (mouse); assay: [125I] ligand binding to C2C12 myocytes transfected with siRNA
[4] = biological target: T2, human AdipoR1 (human adiponectin receptor 1) (human) (UniProt Q96A54); assay: specific binding to HAEC transfected with siRNA for both receptors
T2 sequence: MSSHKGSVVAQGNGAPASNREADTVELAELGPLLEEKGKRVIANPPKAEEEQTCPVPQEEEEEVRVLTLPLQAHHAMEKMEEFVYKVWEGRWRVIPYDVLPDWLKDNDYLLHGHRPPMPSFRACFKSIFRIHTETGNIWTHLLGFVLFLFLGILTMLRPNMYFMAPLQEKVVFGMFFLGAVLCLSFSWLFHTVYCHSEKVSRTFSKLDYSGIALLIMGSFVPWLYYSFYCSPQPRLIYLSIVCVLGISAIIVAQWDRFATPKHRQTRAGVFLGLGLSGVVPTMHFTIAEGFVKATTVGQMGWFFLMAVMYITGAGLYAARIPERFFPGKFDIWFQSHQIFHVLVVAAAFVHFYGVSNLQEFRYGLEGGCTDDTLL

[5] = biological target: T3, human AdipoR2 (human adiponectin receptor 2) (human) (UniProt Q86V24); assay: as above
T3 sequence: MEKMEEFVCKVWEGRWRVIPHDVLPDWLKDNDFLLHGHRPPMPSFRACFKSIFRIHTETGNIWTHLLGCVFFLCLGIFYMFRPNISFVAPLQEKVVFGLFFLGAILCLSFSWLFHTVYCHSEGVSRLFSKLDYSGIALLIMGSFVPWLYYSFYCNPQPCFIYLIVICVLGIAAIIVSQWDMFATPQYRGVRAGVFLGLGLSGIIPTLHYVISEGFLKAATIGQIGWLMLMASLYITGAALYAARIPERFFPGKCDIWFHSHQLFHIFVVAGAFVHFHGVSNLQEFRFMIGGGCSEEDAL

[6] = biological target: T1, mouse AdipoR2 (mouse adiponectin receptor 2) (mouse); assay: specific binding to hepatocytes, transfected with the receptor or with siRNA
[7] = biological target: T1, mouse AdipoR2 (mouse adiponectin receptor 2) (mouse); assay: [125I] ligand binding to C2C12 myocytes transfected with siRNA for both receptors
[8] = biological target: T1, mouse AdipoR2 (mouse adiponectin receptor 2) (mouse); assay: [125I] ligand binding and Scatchard analysis, C2C12 myocytes transfected with siRNA
[9] = biological target: T4, mouse AdipoR1 (mouse adiponectin receptor 1) (mouse), Q91VH1; assay: specific binding to transfected hepatocytes; details: remark: other sources report otherwise
T4 chain: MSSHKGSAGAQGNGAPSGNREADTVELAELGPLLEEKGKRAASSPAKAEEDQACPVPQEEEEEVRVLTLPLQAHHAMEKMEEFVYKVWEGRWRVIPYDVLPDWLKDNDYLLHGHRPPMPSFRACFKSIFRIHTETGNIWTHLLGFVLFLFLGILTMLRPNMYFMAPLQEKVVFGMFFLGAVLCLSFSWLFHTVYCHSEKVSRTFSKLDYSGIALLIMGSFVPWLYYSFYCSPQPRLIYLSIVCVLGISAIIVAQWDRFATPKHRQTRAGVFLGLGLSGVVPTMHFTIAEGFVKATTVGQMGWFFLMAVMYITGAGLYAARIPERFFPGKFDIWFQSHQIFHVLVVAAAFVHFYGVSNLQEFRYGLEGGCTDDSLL

[10] = biological target: T4, mouse AdipoR1 (mouse adiponectin …); assay: [125I] ligand binding to transfected 293T cells; details: remark: other sources report otherwise
[11] = biological target: T4, mouse AdipoR1 (mouse adiponectin …); assay: [125I] ligand binding to transfected C2C12 myocytes; details: remark: other sources report otherwise
[12] = biological target: T4, mouse AdipoR1 (mouse adiponectin …); assay: competitive radioligand binding on C2C12 myocytes transfected with siRNA; details: remark: other sources report otherwise
[13] = biological target: T4, mouse AdipoR1 (mouse adiponectin …); assay: [125I] ligand binding to C2C12 myocytes transfected with siRNA for both receptors; details: remark: other sources report otherwise
[14] = biological target: T4, mouse AdipoR1 (mouse adiponectin …); assay: [125I] ligand binding and Scatchard analysis, C2C12 myocytes transfected with siRNA; details: remark: other sources report otherwise

binding [1]: binds
binding [2]: binds
binding [3]: binds
binding [4]: binds
binding [5]: binds
binding [6]: binds
binding [7]: binds
binding [8]: binds
B1: full-length adiponectin (full-length Adipo) (ligand, mouse, UniProt Q60994 18-247, looked up)
chain: EDDVTTTEELAPALVPPPKGTCAGWMAGIPGHPGHNGTPGRDGRDGTPGEKGEKGDAGLLGPKGETGDVGMTGAEGPRGFPGTPGRKGEPGEAAYVYRSAFSVGLETRVTVPNVPIRFTKIFYNQQNHYDGSTGKFYCNIPGLYYFSYHITVYMKDVKVSLFKKDKAVLFTYDQYQEKNVDQASGSVLLHLEVGDQVWLQVYGDGDHNGLYADNVNDSTFTGFLLYHDTN
modifications: 125I-labeled at Tyr in the radioligand binding assay
notes: also called [125I] full-length Adipo

binding [9]: binds
binding [10]: binds
binding [11]: binds
binding [12]: binds
binding [13]: binds
binding [14]: binds
B2: full-length adiponectin (full-length Adipo), Q60994 18-247 (ligand, mouse, UniProt Q60994 18-247, looked up)
chain: B1 chain
modifications: here or on the partner: 125I-labeled at Tyr in the radioligand binding assay
